Source: PubChem BioAssay AID651640 (Broad Institute, 2012)
The whole screen tested about 350,000 compounds, of which about 6,000 (1.7%) were called active. Inconclusive results, whose numbers are uncertain, are shown with a selection of clear calls. Cut-off read from the data, not from the text of the source: active = CPE inhibition above about 20% (passing the limit was not always enough); inconclusive = no clear call, values can overlap the other calls; tested in BHK-21 cells.

assay: protection of cells from dengue 2 killing – plate reader, single concentration, primary screen (AID 651640); conditions: DENV2-infected cells, cytopathic effect rescue, at 9.99 µM, hits give high values;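 note: 0% = median of neutral control wells and 100% = median of positive control wells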

SMILES | CPE inhibition
O=C(C[C@@H]1CC[C@H](NC(=O)C2CCOCC2)[C@@H](CO)O1)NCc1ccccc1Cl | inactive: -2.29%
Cc1cccc(Cn2ncc(Cl)c(Cl)c2=O)c1 | inactive: 5.24%
COc1ccc(/C=N/NC(=O)c2nnn(-c3nonc3N)c2-c2cccs2)c(OC)c1 | inconclusive: 20.3%
O=C(CCCN1C(=O)/C(=C/c2cccs2)SC1=S)Nc1cccnc1 | inactive: 5.08%
CC(=O)N(C)C[C@@H]1Oc2ncc(/C=C/c3ccccc3)cc2C(=O)N([C@H](C)CO)C[C@H]1C | inconclusive: 29.3%
COc1ccc(NC(=O)C2CCN(C(=O)c3ccco3)CC2)c(OC)c1 | inconclusive: 25.1%
CN1C(=O)c2cc(NC(=O)c3cnccn3)ccc2OC[C@H]2O[C@H](CC(=O)N[C@@H]3CCN(Cc4ccccc4)C3)CC[C@@H]21 | inconclusive: 78.8%
CC(=O)N[C@@H]1C[C@@H]2O[C@H](CO)CC[C@@H]2O[C@@H]1CCc1ccc(C#CC2(O)CCCC2)cc1 | active: 21.3%
O=C(OCc1ccccc1)N1CCC2CC1c1ccc(N3CCN(Cc4ccc5c(c4)OCO5)CC3)cc12 (stereo not given) | inconclusive: 42.2%
C[C@H](CO)N1C[C@H](C)[C@H](CN(C)S(=O)(=O)c2ccc(F)cc2)Oc2ccc(NC(=O)Nc3ccc(F)cc3)cc2CC1=O | inconclusive: 32%
C/C=C/c1ccc([C@@H]2[C@@H](CO)N3C(=O)CN(C(=O)c4cnccn4)C[C@@H]23)cc1 | active: 59.4%
Nc1ncnc2c1ncn2[C@@H]1O[C@H](C(=O)N[C@@H](CCc2ccccc2)C(=O)O)[C@@H](O)[C@H]1O | active: 27.8%
CN1[C@H](C(=O)NC2Cc3ccccc3C2)[C@@H](CO)[C@@H]2Cn3c(ccc(-c4ccncc4)c3=O)[C@@H]21 | inconclusive: 26.4%
O=C(C[C@@H]1C[C@@H]2c3cc(NC(=O)CC4CC4)ccc3O[C@@H]2[C@H](CO)O1)NCc1cccc(F)c1 | inactive: -3.94%
O=C(CN(Cc1ccccc1)C1=NCCS1)c1ccccc1 | active: 39%
CC(=O)OCC(=O)NCCCOc1cccc(CN2CCCCC2)c1 | inconclusive: 31.8%
CCC(CO)Nc1ccn2nc(-c3ccccc3)cc2n1 (stereo not given) | inconclusive: 27%
CCc1nc2sccc2c(=O)n1N | inactive: 6.09%
C[C@@H]1CCCCO[C@@H](CN(C)S(=O)(=O)c2ccccc2)[C@@H](C)CN([C@@H](C)CO)C(=O)c2cc(NC(=O)c3ccccc3)ccc2O1 | inactive: -1.01%
C[C@H](NC(=O)[C@H]1[C@H](CO)[C@H]2Cn3c(cccc3=O)[C@@H]1N2C(=O)C1CC1)c1ccccc1 | inactive: -4.23%

Given with tabs: 6 of the compounds above
SMILES	CPE inhibition
Cc1cccc(Cn2ncc(Cl)c(Cl)c2=O)c1	inactive: 5.24%
COc1ccc(/C=N/NC(=O)c2nnn(-c3nonc3N)c2-c2cccs2)c(OC)c1	inconclusive: 20.3%
O=C(CCCN1C(=O)/C(=C/c2cccs2)SC1=S)Nc1cccnc1	inactive: 5.08%
CC(=O)N(C)C[C@@H]1Oc2ncc(/C=C/c3ccccc3)cc2C(=O)N([C@H](C)CO)C[C@H]1C	inconclusive: 29.3%
COc1ccc(NC(=O)C2CCN(C(=O)c3ccco3)CC2)c(OC)c1	inconclusive: 25.1%
CN1C(=O)c2cc(NC(=O)c3cnccn3)ccc2OC[C@H]2O[C@H](CC(=O)N[C@@H]3CCN(Cc4ccccc4)C3)CC[C@@H]21	inconclusive: 78.8%
